Experimental data from patent US20090307791A1, “CALCIUM-ACTIVATED CHLORIDE CHANNEL AND METHODS OF USE THEREOF” (priority 2008, published 2009).

Test system: xTMEM16A
Assay: NFA inhibition of IP3-induced CaCC currents, two electrode voltage clamp, Axolotl oocytes injected with xTMEM16A cRNA
Assay type: cell-based
Conditions: 30 μM NFA, scatter plot FIG. 4d
Description: For experiments involving TMEM16 constructs, capped cRNA was in vitro transcribed from linearized plasmids using the mMessage mMachine kit (Ambion). Female Axolotls and Xenopus laevis were purchased from the Ambystoma Genetic Stock Center and Nasco respectively. Oocytes from these animals were defoliculated by treatment with collagenase prepared as described. Usually 5 ng of cRNA (50 ng for mRNA) was injected into defolliculated oocytes. Oocytes were kept at 17° C. in ND96 solution (96 mM NaCl, 2 mM KCl, 1.8 mM CaCl2, 1 mM MgCl2, 10 mM HEPES [pH 7.4]). Two-electrode voltage-clamp measurements were performed at room temperature 2-4 days after injection using a GeneClamp500 amplifier (Axon Instruments) and pClamp 8.0 software (Axon Instruments). Oocytes used in photolysis experiments were injected with […] of 100 μM caged inositol trisphosphate [myo-inositol 1,4,5-trisphosphate, P4(5)-1-(2-nitrophenyl)ethyl ester] […]
Currents were usually recorded in Ca^2+ free ND96 solution (96 mM NaCl, 2 mM KCl, 3 mM MgCl2, 10 mM HEPES [pH 7.4]). […] The permeability ratios were calculated from shifts in reversal potential ΔErev using the Goldman-Hodgkin-Katz Equation in the form: PX/PCl=(γ·[Cl^−](1)−[Cl^−](2))/[X^−](2) were [Cl^−](1), [Cl^−](2) and [X^−](2) are the external Cl^− and X^− concentration before and after solution exchange. […]

O=C(O)c1cccnc1Nc1cccc(C(F)(F)F)c1 [NFA, niflumic acid]
slope b of regression line, CaCC current duration vs remaining current in the presence of NFA: 30 mV/s
